# According to patent publication US8618088B2, “Methods of inhibiting choroidal neovascularization” (University of Pennsylvania, priority 2002, dated 2013):
# At least one structure is not confirmed: it was looked up by name or label, or the drawing left a doubt.
# Key:
# tumor angiogenesis = conditions: Guba et al. 2002; cited from earlier work
# [1] = system: choroidal neovascularization (CNV); experiment: Matrigel subretinal injection model of choroidal neovascularization (CNV), Vessel Paint staining and fluorescence microscopy; format: in vivo, Sprague-Dawley rats; conditions: for CNV: in-gel delivery, 10 days after injection
# Procedure: In search of effective treatments for CNV, a simple animal model was created by injecting 2-3µl Matrigel™ to the subretinal space of adult Sprague-Dawley rats using a 33-gauge needle connected to a 10µl Hamilton microsyringe. A week or more later the animals were sacrificed by CO2 inhalation and perfused with Vessel Paint, a new visualization technique recently developed in the inventors' lab that enables screening agents, including chemical compounds and proteins, for their potential in inhibiting CNV (Wen, ARVO Abstract, March 2002). Vessel Painting comprises the use of a solution containing DiI, followed by 4% paraformaldehyde solution, and is discussed further below.
# The anterior portion of the eye, including the cornea and lens, was removed, and the eyecup was imbedded in 5% agarose. Serial thick sections (100µm) of the eye were cut on a vibratome and mounted on glass slides. Eye sections were examined by fluorescence microscopy for neovascularization in the Matrigel™ deposit. Serial optical sections were obtained using confocal microscopy. Three-dimensional reconstruction of newly developed blood vessels was achieved using Auto Visualiz-3D (Autoquant Imaging, Inc.). Protein leakage of the new vessels was detected by assessing color change in the Matrigel™ deposit after intravenous injection of Evan's Blue dye.
# In the following, Matrigel™ (1.2 μl) was introduced to the subretinal space by injection into eyes of Sprague-Dawley rats. At a given time after injection, the animal was sacrificed and perfused with Vessel Paint, followed by 4% paraformaldehyde solution. The anterior portion of the eye was removed and the eyecup was then embedded in 5% agarose. Serial cross sections (100 μm thick) were cut on a vibratome.
# Adult Sprague-Dawley rats (n=22) were injected with Matrigel™ to the subretinal space. Animals were fed with rapamycin once a day at a dose of 3 mg/kg started 4 days before Matrigel™ injection. Eyes were collected at 10 days (n=18) or 20 days (n=4) after Matrigel™ injection and processed as described in Example 4. Tissue sections were examined by fluorescence microscopy. […] In the 20 days group, some newly formed blood vessels started to invade the Matrigel™ area. The amount of CNV in this group was semiquantified as (+).
# In another group of animals, rapamycin was mixed with Matrigel™ (suspension, 1 μg/μl, n=6; 10 μg/μl, n=11) and co-injected to the subretinal space with Matrigel™ (in-gel delivery). Eyes were collected 10 days after injection and processed as described in Example 4. […] Rapamycin particles in Matrigel™ are clearly seen in the DIC image, which is superimposed on a confocal image of Vessel Paint staining to show the choroidal and retinal blood vessels.
# Eyes were collected 10 days after injection and blood vessels were stained with Vessel Paint. Eyes were embedded in 5% agarose and serial sections were cut (100 μm thick) on a vibratome. CNV was examined by fluorescence microscopy and CNV index of each eye was calculated.
# [2] = system: response to VEGF, bFGF and PDGF; conditions: Yu and Sato 1999; Cao et al. 1995; cited from earlier work
# [3] = system: endothelial cell proliferation; conditions: Vinals et al. 1999; cited from earlier work
compound,measurement,setting,value
CO[C@H]1C[C@@H]2CC[C@@H](C)[C@@](O)(O2)C(=O)C(=O)N2CCCC[C@H]2C(=O)O[C@H]([C@H](C)C[C@@H]2CC[C@@H](O)[C@H](OC)C2)CC(=O)[C@H](C)/C=C(\C)[C@@H](O)[C@@H](OC)C(=O)[C@H](C)C[C@H](C)/C=C/C=C/C=C/1C [rapamycin],tumor angiogenesis,tumor angiogenesis,block tumor angiogenesis
same,CNV,"[1]; suspension 1 μg/μl, subretinal",No CNV was found
same,CNV,"[1]; suspension 10 μg/μl, subretinal",No CNV was found
same,inhibition of CNV,"[1]; mixed with Matrigel (in DMSO or suspended in PBS), subretinal, dose of 25 (30 μg/injection)",complete inhibition of CNV
same,neovascularization in treated eyes,"[1]; mixed with Matrigel, subretinal, 2.5 μg/μL",no detectable neovascularization
same,new blood vessels invading the subretinal space,"[1]; oral 3 mg/kg once a day from 4 days before Matrigel injection, eyes collected at 10 days",None of the eyes collected at 10 days contained any new blood vessels
same,inhibition of CNV development,"[1]; oral Rapamune 1.5 mg/kg/d, 4 days before Matrigel injection through 10 days after, 16 eyes",complete inhibition of CNV development
same,"response to VEGF, bFGF and PDGF",[2],inhibits
same,endothelial cell proliferation,[3],inhibits
